In US20020182232A9, “Cosmetic composition comprising at least one ingredient chosen from compounds of formula (I) and salts thereof, use thereof as colouring agent, and novel compounds of formulae (IIa), (IIIa), (IVa), (Va), and (VIa), and salts thereof” (priority 2000, published 2002):

Test: Colouring strength: colorimetric L, a, b and C values (Minolta CR-300)
Assay type: physicochemical
Conditions: colorimeter; for a (red-green axis) / b (yellow-blue axis) / L (luminance): L a b system; for L (luminance): pure compacted compound or TiO2/petroleum jelly mixture not specified

Compound	c (saturation of the compound)	a (red-green axis)	b (yellow-blue axis)	L (luminance)
O=C1c2ccccc2C(=O)c2c1oc1c2ccc2ccc(O)cc21 [2-Hydroxy-dinaphtho(1,2-b:2′,3′-d)furan-7,12-dione]	62.9	43.9	45.0	47.4
COc1ccc2ccc3oc4c(c3c2c1)C(=O)c1ccccc1C4=O [2-methoxydinaphtho-(2,1-b:2′,3′-d)furan-8,13-dione]	78.8	53.0	58.4	54.5
O=C1c2ccccc2C(=O)c2c1oc1ccc3cc(Br)ccc3c21 [3-bromodinaphtho(2,1-b:-2′,3′-d)furan-8,13-dione]	99.4	7.6	99.1	82.5
COc1ccc2c(ccc3oc4c(c32)C(=O)c2ccccc2C4=O)c1 [3-methoxydinaphtho-(2,1-b:2′,3′-d)furan-8,13-dione]	92.4	34.2	85.8	70.7
O=C1c2ccccc2C(=O)c2c1oc1c2cc(Cl)c2ccccc21 [5-chlorodinaphtho-(1,2-b:2′,3′-d)furan-7,12-dione]	103	−2.7	103	85.7
CCOc1cc2c3c(oc2c2ccccc12)C(=O)c1ccccc1C3=O [5-ethoxydinaphtho(1,2-b:2′,3′-d)furan-7,12-dione]	52.8	44.4	28.6	35.0
CCCCCCOc1cc2c3c(oc2c2ccccc12)C(=O)c1ccccc1C3=O [5-hexyloxydinaphtho-(1,2-b:2′,3′-d)furan-7,12-dione]	72.0	50.8	51.0	48.9
O=C1c2ccccc2C(=O)c2c1oc1cc(O)c3ccccc3c21 [5-hydroxydinaphtho(2,1-b:2′,3′-d)furan-8,13-dione]	19.4	16.9	9.5	22.4
CC(C)Oc1cc2c3c(oc2c2ccccc12)C(=O)c1ccccc1C3=O [5-isopropyloxydinaphtho-(1,2-b:2′,3′-d)furan-7,12-dione]	72.4	54.9	47.3	44.9
O=C1c2ccccc2C(=O)c2c1oc1c2ccc2ccccc21 [Dinaphtho(1,2-b:2′,3′-d)furan-7,12-dione, dinaphtho(1,2-b:2′,3′-d)furan-7,12-dione]	108	0.19	108	88.5
O=C1c2ccccc2C(=O)c2c1oc1ccc3ccccc3c21 [Dinaphtho(2,1-b:2′,3′-d)furan-8,13-dione, dinaphtho(2,1-b:2′,3′-d)furan-8,13-dione]	88.7	10.7	88.0	75.6
O=C(O)c1nn(-c2ccc(S(=O)(=O)O)cc2)c(O)c1N=Nc1ccc(S(=O)(=O)O)cc1 [FD&C Yellow No. 5, reference compound]	100	16.1	98.8	83.5
O=S(=O)([O-])c1ccc(N=Nc2c(O)ccc3cc(S(=O)(=O)[O-])ccc23)cc1.[Na+].[Na+] [FD&C Yellow No. 6, reference compound]	89.5	51.4	73.3	58.2
